{"source": "PubChem BioAssay AID652243 (Drosophila RNAi Screening Center, 2013)", "aim": "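Knock-downs that decrease or increase androgen receptor reporter signal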 (primary screen)", "system": "Drosophila S2R+ cells", "reagents": "long dsRNA against Drosophila genes", "time to read-out": "72 h (48 h, then 24 h hormone)", "conditions": "synthetic androgen R1881 at 10 nM for 24 h", "measurement": "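Firefly light from an androgen-responsive reporter and Renilla control light per well, raw and unnormalised, for each of two replicates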", "reading the numbers": "firefly reporter light: higher = more light from androgen-responsive reporter; Renilla control light: higher = more constitutive control signal (cell number, transfection)", "active means": "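Across duplicate plates, a knock-down whose log firefly/Renilla ratio shifted a set fold down or up from the GFP/LacZ control mean was a hit; the downward cut appears as both 1.5 and 3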", "calls": "active = hit: reporter lowered or raised; inactive = no hit", "note": "The deposit covers about 24,000 reagents; this is a random part of those that have a named target and a result. In the full data, 246 (1%) were called active. 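Plates not normalised; calls are printed but the firefly/Renilla ratio behind them is not deposited; fold cut for lowering reported inconsistently.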 Raw values vary from plate to plate and are shown uncorrected. The numbers tell different reagents against one gene apart. A plus sign joins genes that one reagent is predicted to hit. Reagent sequences are not shown. Not given: the amount of reagent."}
{"target": "Su(H)", "dsRNA no.": 1, "firefly reporter light, replicate 1": 1.27e5, "firefly reporter light, replicate 2": 1.36e5, "Renilla control light, replicate 1": 1.10e6, "Renilla control light, replicate 2": 1.54e6, "activity call": "inactive"}
{"target": "Su(H)", "dsRNA no.": 2, "firefly reporter light, replicate 1": 4.24e5, "firefly reporter light, replicate 2": 5.20e5, "Renilla control light, replicate 1": 1.45e6, "Renilla control light, replicate 2": 2.27e6, "activity call": "inactive"}
{"target": "Myo28B1", "dsRNA no.": 1, "firefly reporter light, replicate 1": 1.72e5, "firefly reporter light, replicate 2": 1.95e5, "Renilla control light, replicate 1": 2.13e6, "Renilla control light, replicate 2": 2.04e6, "activity call": "inactive"}
{"target": "Myo28B1", "dsRNA no.": 2, "firefly reporter light, replicate 1": 3.78e5, "firefly reporter light, replicate 2": 2.97e5, "Renilla control light, replicate 1": 9.39e5, "Renilla control light, replicate 2": 9.02e5, "activity call": "inactive"}
{"target": "Trmt6", "dsRNA no.": 1, "firefly reporter light, replicate 1": 1.85e5, "firefly reporter light, replicate 2": 2.10e5, "Renilla control light, replicate 1": 1.92e6, "Renilla control light, replicate 2": 2.50e6, "activity call": "inactive"}
{"target": "Hr3", "dsRNA no.": 1, "firefly reporter light, replicate 1": 8.83e5, "firefly reporter light, replicate 2": 8.80e5, "Renilla control light, replicate 1": 1.74e6, "Renilla control light, replicate 2": 1.85e6, "activity call": "inactive"}
{"target": "CG34026", "dsRNA no.": 1, "firefly reporter light, replicate 1": 6.68e5, "firefly reporter light, replicate 2": 7.15e5, "Renilla control light, replicate 1": 1.81e6, "Renilla control light, replicate 2": 1.65e6, "activity call": "inactive"}
{"target": "CG5882", "dsRNA no.": 1, "firefly reporter light, replicate 1": 83647, "firefly reporter light, replicate 2": 1.50e5, "Renilla control light, replicate 1": 9.39e5, "Renilla control light, replicate 2": 1.90e6, "activity call": "inactive"}
{"target": "CG42818", "dsRNA no.": 1, "firefly reporter light, replicate 1": 1.86e5, "firefly reporter light, replicate 2": 1.40e5, "Renilla control light, replicate 1": 2.64e6, "Renilla control light, replicate 2": 2.05e6, "activity call": "inactive"}

Part of the list above, reformatted.
target,dsRNA no.,"firefly reporter light, replicate 1","firefly reporter light, replicate 2","Renilla control light, replicate 1","Renilla control light, replicate 2",activity call
CG5882,1,83647,1.50e5,9.39e5,1.90e6,inactive
CG42818,1,1.86e5,1.40e5,2.64e6,2.05e6,inactive

The results go on:
{"target": "fog", "dsRNA no.": 1, "firefly reporter light, replicate 1": 64554, "firefly reporter light, replicate 2": 62178, "Renilla control light, replicate 1": 5.45e5, "Renilla control light, replicate 2": 5.68e5, "activity call": "inactive"}
{"target": "osp", "dsRNA no.": 1, "firefly reporter light, replicate 1": 1.33e5, "firefly reporter light, replicate 2": 2.31e5, "Renilla control light, replicate 1": 6.56e5, "Renilla control light, replicate 2": 6.54e5, "activity call": "inactive"}
{"target": "osp", "dsRNA no.": 2, "firefly reporter light, replicate 1": 3.38e5, "firefly reporter light, replicate 2": 5.13e5, "Renilla control light, replicate 1": 1.06e6, "Renilla control light, replicate 2": 1.32e6, "activity call": "inactive"}
{"target": "Fpps", "dsRNA no.": 1, "firefly reporter light, replicate 1": 9.98e5, "firefly reporter light, replicate 2": 9.43e5, "Renilla control light, replicate 1": 9.25e5, "Renilla control light, replicate 2": 1.04e6, "activity call": "inactive"}
{"target": "Shawn + Tyler", "dsRNA no.": 1, "firefly reporter light, replicate 1": 54880, "firefly reporter light, replicate 2": 79259, "Renilla control light, replicate 1": 5.00e5, "Renilla control light, replicate 2": 5.29e5, "activity call": "inactive"}
{"target": "Shawn + Tyler", "dsRNA no.": 2, "firefly reporter light, replicate 1": 68971, "firefly reporter light, replicate 2": 66308, "Renilla control light, replicate 1": 2.14e5, "Renilla control light, replicate 2": 2.05e5, "activity call": "inactive"}
{"target": "zen", "dsRNA no.": 1, "firefly reporter light, replicate 1": 62711, "firefly reporter light, replicate 2": 1.19e5, "Renilla control light, replicate 1": 1.83e6, "Renilla control light, replicate 2": 1.47e6, "activity call": "inactive"}
{"target": "zen", "dsRNA no.": 2, "firefly reporter light, replicate 1": 2.53e5, "firefly reporter light, replicate 2": 1.74e5, "Renilla control light, replicate 1": 7.85e5, "Renilla control light, replicate 2": 5.37e5, "activity call": "inactive"}
{"target": "mael", "dsRNA no.": 1, "firefly reporter light, replicate 1": 40395, "firefly reporter light, replicate 2": 76393, "Renilla control light, replicate 1": 3.12e5, "Renilla control light, replicate 2": 3.52e5, "activity call": "inactive"}
{"target": "sle", "dsRNA no.": 1, "firefly reporter light, replicate 1": 76549, "firefly reporter light, replicate 2": 24105, "Renilla control light, replicate 1": 8.43e5, "Renilla control light, replicate 2": 4.44e5, "activity call": "inactive"}
{"target": "CG31802", "dsRNA no.": 1, "firefly reporter light, replicate 1": 2.17e5, "firefly reporter light, replicate 2": 1.95e5, "Renilla control light, replicate 1": 2.39e6, "Renilla control light, replicate 2": 1.99e6, "activity call": "inactive"}
{"target": "Ppm1", "dsRNA no.": 1, "firefly reporter light, replicate 1": 61006, "firefly reporter light, replicate 2": 56091, "Renilla control light, replicate 1": 9.88e5, "Renilla control light, replicate 2": 9.52e5, "activity call": "inactive"}
{"target": "Ppm1", "dsRNA no.": 2, "firefly reporter light, replicate 1": 2.28e5, "firefly reporter light, replicate 2": 1.79e5, "Renilla control light, replicate 1": 4.86e5, "Renilla control light, replicate 2": 7.09e5, "activity call": "inactive"}
